Test system: KARPAS-422 xenograft
Assay: Efficacy in KARPAS-422 xenograft model
Format: in vivo, mice
Details: 25 mg/kg QD PO

SMILES: CCN(c1cc(-c2ccc(CN3CCOCC3)cc2)cc(C(=O)NCc2c(C)cc(C)[nH]c2=O)c1C)C1CCOCC1 [Tazemetostat]
- reduction in tumor volume relative to vehicle: 49%

Reference: publication PMC7949150 (The Journal of Biological Chemistry, 2021)
